Results published in PubChem BioAssay AID330 (DTP/NCI, 2004).
The list is a part of this screen's results and no random one: it is rich in T/C values a quarter to a half above the control, in often repeated tests (any T/C) and in doses without a T/C. Further doses and runs are listed elsewhere. T/C is the treated group as % of the vehicle group. Some entries give survivors of the animals treated and no T/C: the source files T/C as zero there, which appears to mark a toxic dose or a test without result, not a measured value. Some doses without a T/C left all or most animals alive at the check, yet need not have been tolerated: the source hardly ever lists a survival T/C far under the control, and the zero likely stands for such cases as well. Survivors were counted at the toxicity check, usually on the fifth day, unless a day is given; later deaths do not show. Schedule codes are those of the source, read here as Q, the interval in days (D) or hours (H), X, the number of doses. Some doses were run more than once; the values are given in rising order. For survival time, the PubChem record calls one and a half times the control and up active, and a quarter to a half above the control has no call in these data; cut-offs in other NCI protocols can differ. Some T/C values carry the count of animals alive at the toxicity check (mostly the fifth day); where none is given, no animal had died by that day.

Test system: P388 leukemia ip, CD2F1 mice, survival T/C
Test: NCI In Vivo Anticancer Drug Screen. Data for tumor model P388 Leukemia (intraperitoneal) in CD2F1 (CDF1) mice
Conditions: T/C endpoint: median survival time, higher T/C = longer survival
[1] = dose: 50.0 mg/kg/injection, schedule: Q01DX009 (ip), vehicle: suspension in saline
[2] = dose: 200.0 mg/kg/injection, schedule: Q01DX009 (ip), vehicle: suspension in saline
[3] = dose: 200.0 mg/kg/injection, schedule: Q04DX003 (ip), vehicle: saline with Tween-80
[4] = dose: 200.0 mg/kg/injection, schedule: Q01DX009 (ip), vehicle: saline with Tween-80
[5] = dose: 50.0 mg/kg/injection, schedule: Q04DX003 (ip), vehicle: saline with Tween-80
[6] = dose: 100.0 mg/kg/injection, schedule: Q04DX003 (ip), vehicle: saline with Tween-80
[7] = dose: 240.0 mg/kg/injection, schedule: Q01DX005 (ip), vehicle: saline with Tween-80
[8] = dose: 25.0 mg/kg/injection, schedule: Q01DX009 (ip), vehicle: saline with Tween-80
[9] = dose: 50.0 mg/kg/injection, schedule: Q01DX009 (ip), vehicle: saline with Tween-80
[10] = dose: 100.0 mg/kg/injection, schedule: Q01DX009 (ip), vehicle: saline with Tween-80
[11] = dose: 400.0 mg/kg/injection, schedule: Q01DX009 (ip), vehicle: saline with Tween-80
[12] = dose: 50.0 mg/kg/injection, schedule: Q01DX005 (ip), vehicle: saline with Tween-80
[13] = dose: 100.0 mg/kg/injection, schedule: Q01DX005 (ip), vehicle: saline with Tween-80
[14] = dose: 200.0 mg/kg/injection, schedule: Q01DX005 (ip), vehicle: saline with Tween-80
[15] = dose: 200.0 mg/kg/injection, schedule: Q04DX003 (ip), vehicle: saline
[16] = dose: 400.0 mg/kg/injection, schedule: Q04DX003 (ip), vehicle: saline

## c1cc(-n2nnc3cnccc32)ccn1
dose: 25.0 mg/kg/injection, schedule: Q01DX009 (ip), vehicle: saline
  survivor count: 2 of 6
[1]
  survivor count: 5 of 6
dose: 100.0 mg/kg/injection, schedule: Q01DX009 (ip), vehicle: suspension in saline
  survivor count: 2 of 6
[2]
  survivor count: 0 of 6

## CN1CCN(c2cc3nc[nH]c(=O)c3cc2[N+](=O)[O-])CC1
dose: 200.0 mg/kg/injection, schedule: Q04DX003 (ip), vehicle: Klucel (hydroxypropylcellulose) (HPC)
  survivor count: 0 of 6

## O=C(O)c1ccc(Oc2nc3ccccc3s2)cc1
[3]
  survivor count: 6 of 6

## CC(C)Cc1nccs1
[4]
  T/C: 125 % of control [5 of 6 alive]

## CCOC(=O)CCOc1ccccc1N(CCCl)CCCl
dose: 8.0 mg/kg/injection, schedule: Q04DX003 (ip), vehicle: saline sonified
  T/C: 131 % of control
dose: 12.0 mg/kg/injection, schedule: Q04DX003 (ip), vehicle: saline sonified
  T/C: 131 % of control
dose: 12.5 mg/kg/injection, schedule: Q04DX003 (ip), vehicle: saline with Tween-80
  T/C: 140 % of control
dose: 18.0 mg/kg/injection, schedule: Q04DX003 (ip), vehicle: saline sonified
  T/C: 136 % of control
dose: 25.0 mg/kg/injection, schedule: Q04DX003 (ip), vehicle: saline with Tween-80
  survivor count: 3 of 6
[5]
  survivor count: 2 of 6
[6]
  survivor count: 0 of 6

## CCOC(=O)C1=C(C(=O)c2ccccc2)C(c2ccccc2[N+](=O)[O-])C(C(=O)c2ccccc2)=C(C(=O)OCC)N1
[7]
  survivor count: 2 of 6

## Cc1ccc2cc3c(ccc4ccccc43)c3c2c1CC3
dose: 12.5 mg/kg/injection, schedule: Q01DX009 (ip), vehicle: saline with Tween-80
  T/C: 127 % of control
dose: 22.0 mg/kg/injection, schedule: Q01DX009 (ip), vehicle: saline with Tween-80
  T/C: 146 % of control
[8]
  T/C: 136 % of control
[9]
  T/C: 132 and 140 % of control
[5]
  T/C: 140 % of control
dose: 75.0 mg/kg/injection, schedule: Q01DX009 (ip), vehicle: saline with Tween-80
  T/C: 128 % of control
dose: 88.0 mg/kg/injection, schedule: Q04DX003 (ip), vehicle: saline with Tween-80
  T/C: 133 % of control
[10]
  T/C: 136 % of control
[6]
  T/C: 131 % of control
dose: 132.0 mg/kg/injection, schedule: Q04DX003 (ip), vehicle: saline with Tween-80
  T/C: 133 % of control
[4]
  T/C: 132 % of control
[11]
  T/C: 132 % of control

## CN(C)c1ccc(C(=C2C=CC(=[N+](C)C)C=C2)c2ccccc2Cl)cc1
dose: 12.5 mg/kg/injection, schedule: Q01DX005 (ip), vehicle: saline with Tween-80
  survivor count: 5 of 6
dose: 25.0 mg/kg/injection, schedule: Q01DX005 (ip), vehicle: saline with Tween-80
  survivor count: 1 of 6
[12]
  survivor count: 0 of 6
[13]
  survivor count: 0 of 6
[14]
  survivor count: 0 of 6

## CCCCC(CCCC)=NO
[14]
  survivor count: 5 of 5

## C#CC(=O)OC
dose: 100.0 mg/kg/injection, schedule: Q04DX002 (ip), vehicle: saline
  survivor count: 0 of 6
dose: 200.0 mg/kg/injection, schedule: Q04DX002 (ip), vehicle: saline
  survivor count: 0 of 6
dose: 400.0 mg/kg/injection, schedule: Q04DX002 (ip), vehicle: saline
  survivor count: 0 of 6

## CCN(CC)CCN1C(=O)c2cccc(N)c2C1=O
dose: 200.0 mg/kg/injection, schedule: Q01DX005 (ip), vehicle: saline
  survivor count: 0 of 5

## COc1ccc2c(=O)c(Cc3c[nH]c4ccccc34)coc2c1
dose: 60.0 mg/kg/injection, schedule: Q01DX005 (ip), vehicle: saline with Tween-80
  survivor count: 6 of 6
dose: 120.0 mg/kg/injection, schedule: Q01DX005 (ip), vehicle: saline with Tween-80
  survivor count: 6 of 6
[7]
  survivor count: 6 of 6

## OCCN1CCN(CCCOC2=Nc3ccccc3O/C2=C/c2ccccc2)CC1
[15]
  survivor count: 2 of 6
[16]
  survivor count: 0 of 6

## CCCCCC(N)C(C)=O (configuration not stated)
dose: 100.0 mg/kg/injection, schedule: Q01DX009 (ip), vehicle: saline
  survivor count: 3 of 6
[4]
  survivor count: 0 of 6
[11]
  survivor count: 0 of 6

## O=C(NO)c1coc2ccccc2c1=O
[7]
  survivor count: 0 of 6

## O=C1C=CC(=O)C(N(CCO)CCO)=C1
[1]
  T/C: 128 % of control
[2]
  survivor count: 5 of 6

## O=S1C2CCC(Cl)C1CCC2Cl (configuration not stated)
dose: 3.12 mg/kg/injection, schedule: Q01DX009 (ip), vehicle: Klucel (hydroxypropylcellulose) (HPC)
  survivor count: 0 of 6
dose: 6.25 mg/kg/injection, schedule: Q01DX009 (ip), vehicle: Klucel (hydroxypropylcellulose) (HPC)
  survivor count: 0 of 6
dose: 12.5 mg/kg/injection, schedule: Q01DX009 (ip), vehicle: Klucel (hydroxypropylcellulose) (HPC)
  survivor count: 0 of 6
dose: 25.0 mg/kg/injection, schedule: Q01DX009 (ip), vehicle: Klucel (hydroxypropylcellulose) (HPC)
  survivor count: 0 of 6
dose: 50.0 mg/kg/injection, schedule: Q01DX009 (ip), vehicle: Klucel (hydroxypropylcellulose) (HPC)
  survivor count: 0 of 6
dose: 100.0 mg/kg/injection, schedule: Q01DX009 (ip), vehicle: Klucel (hydroxypropylcellulose) (HPC)
  survivor count: 0 of 6
dose: 200.0 mg/kg/injection, schedule: Q01DX009 (ip), vehicle: Klucel (hydroxypropylcellulose) (HPC)
  survivor count: 0 of 6

## CC(C)(O)C1CCC2(C)CC(=O)NCCN12 (configuration not stated)
dose: 100.0 mg/kg/injection, schedule: Q01DX001 (ip), vehicle: Klucel (hydroxypropylcellulose) (HPC)
  survivor count: 1 of 6

## OC1(c2ccccc2)CSC2=Nc3ccccc3C3CCN1N23 (configuration not stated)
[8]
  T/C: 86, 105, 111, 112 % of control
[9]
  T/C: 94, 99, 105, 107 % of control
  survivor count: 6 of 6
[10]
  survivor count: 6 of 6

## N#Cc1ccc(OCCCCOc2ccc(C#N)cc2)cc1
[12]
  survivor count: 6 of 6
[13]
  survivor count: 6 of 6
[14]
  survivor count: 6 of 6

## CCC[CH2][Sn]([CH2]CCN(C)C)([CH2]CCN(C)C)[CH2]CCN(C)C
[4]
  survivor count: 0 of 6

## O=C(NCCCl)OCC1=C(COC(=O)NCCCl)C(=O)c2ccccc2C1=O
[12]
  T/C: 125 % of control [5 of 6 alive]
  survivor count: 3 of 6
[13]
  survivor count: 1 of 6 and 2 of 6
[14]
  survivor count: 0 of 6

## CN1N=C(C2=NN(C)C(=O)N(C)N2)NN(C)C1=O
dose: 100.0 mg/kg/injection, schedule: Q01DX005 (ip), vehicle: Klucel (hydroxypropylcellulose) (HPC)
  survivor count: 0 of 5
dose: 200.0 mg/kg/injection, schedule: Q01DX005 (ip), vehicle: Klucel (hydroxypropylcellulose) (HPC)
  survivor count: 0 of 5

## CCCCCC(=O)C(CCCC)(c1nc2n(c1O)C(=N)N=N2)c1nc2n(c1O)C(=N)N=N2 (configuration not stated)
[14]
  T/C: 125 % of control

## C[CH2][Sn]1([CH2]C)[O]C2C(OC)OC3COC(c4ccccc4)OC3C2[O]1 (configuration not stated)
dose: 12.5 mg/kg/injection, schedule: Q04DX003 (ip), vehicle: saline
  T/C: 128 % of control
dose: 25.0 mg/kg/injection, schedule: Q04DX003 (ip), vehicle: saline
  survivor count: 1 of 6
dose: 100.0 mg/kg/injection, schedule: Q04DX003 (ip), vehicle: saline
  survivor count: 0 of 6
[15]
  survivor count: 0 of 6
[16]
  survivor count: 0 of 6

## FC(F)(F)C1=C(C(F)(F)F)SP(Cl)(c2ccccc2)(c2ccccc2)S1
dose: 400.0 mg/kg/injection, schedule: Q04DX003 (ip), vehicle: other
  survivor count: 5 of 6

## CCc1cc2c(cc1C(=O)CBr)C(C)(C)CCC2(C)C
[8]
  survivor count: 4 of 6
[5]
  survivor count: 4 of 6
[6]
  survivor count: 2 of 6
[3]
  survivor count: 0 of 6
dose: 400.0 mg/kg/injection, schedule: Q04DX003 (ip), vehicle: saline with Tween-80
  survivor count: 0 of 6
